Measurements reported in PubChem BioAssay AID602196 (INSERM, 2012).
Test: 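Knock-downs that protect lung cancer cells from cisplatin or sensitise them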. System: human A549 lung cancer cells. Reagents: siRNA pair against human genes. Duration: 48 h transfection before cisplatin; time from cisplatin to read-out not stated. Conditions: cisplatin at a dose killing half of control-siRNA cells; exact dose and duration not given. Read-out: 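Shift in cisplatin death relative to control siRNA, from -50 (all cells die) to +50 (no cells die); siRNAs harmful on their own scored 0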. Direction: two-siRNA summed score (-2 to +2): higher = both siRNAs protect from cisplatin killing; -2 means both sensitise; mean protection from cisplatin (shift in death): higher = protection from cisplatin killing. Hit rule: 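Each siRNA scores 0 if harmful alone by LDH or WST-1, otherwise +1 if it reduces and -1 if it increases cisplatin killing; a gene is active when both siRNAs agree (sum +2 or -2)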. Meaning of the calls: active = both siRNAs shift cisplatin killing the same way; inactive = no consistent shift, or siRNA harmful alone.
Here is one part, drawn at random, of about 23,000 reagents. 455 of them (2%) count as active. 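Active includes both protection and sensitisation; some change values fall well beyond the stated -50 to +50 range.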 Entries without a mark were called inactive. Not all columns of the deposit are shown. Not given: the amount of reagent.

IRX3
- two-siRNA summed score (-2 to +2): 0
- mean protection from cisplatin (shift in death) (%): 9.3

HLA-DOA
- two-siRNA summed score (-2 to +2): 0
- mean protection from cisplatin (shift in death) (%): 3.3

SOCS7
- two-siRNA summed score (-2 to +2): 0
- mean protection from cisplatin (shift in death) (%): 6.9

EIF1AX
- two-siRNA summed score (-2 to +2): 0
- mean protection from cisplatin (shift in death) (%): -8.2

CASP6
- two-siRNA summed score (-2 to +2): 0
- mean protection from cisplatin (shift in death) (%): 16.1

CHAF1B
- two-siRNA summed score (-2 to +2): 0
- mean protection from cisplatin (shift in death) (%): 4

BOD1L1
- two-siRNA summed score (-2 to +2): 0
- mean protection from cisplatin (shift in death) (%): 4.9

COPB1
- two-siRNA summed score (-2 to +2): 0
- mean protection from cisplatin (shift in death) (%): 8.4

GLS2
- two-siRNA summed score (-2 to +2): 0
- mean protection from cisplatin (shift in death) (%): 3.5

ALAS1
- two-siRNA summed score (-2 to +2): 1
- mean protection from cisplatin (shift in death) (%): 15.5

LOC388709
- two-siRNA summed score (-2 to +2): 1
- mean protection from cisplatin (shift in death) (%): 11.1

H2AP
- two-siRNA summed score (-2 to +2): 0
- mean protection from cisplatin (shift in death) (%): 5

MRPS30
- two-siRNA summed score (-2 to +2): 1
- mean protection from cisplatin (shift in death) (%): 8.1

TOP6BL
- two-siRNA summed score (-2 to +2): 0
- mean protection from cisplatin (shift in death) (%): 12.9

POU1F1
- two-siRNA summed score (-2 to +2): 0
- mean protection from cisplatin (shift in death) (%): -11.3

MMAB
- two-siRNA summed score (-2 to +2): 0
- mean protection from cisplatin (shift in death) (%): 3.2

CYP11B2
- two-siRNA summed score (-2 to +2): -1
- mean protection from cisplatin (shift in death) (%): -23.7

MAML1
- two-siRNA summed score (-2 to +2): 0
- mean protection from cisplatin (shift in death) (%): 2.3

ATP8A1
- two-siRNA summed score (-2 to +2): 0
- mean protection from cisplatin (shift in death) (%): 3.8

RTL5
- two-siRNA summed score (-2 to +2): 0
- mean protection from cisplatin (shift in death) (%): 5.7

ZNF37BP
- two-siRNA summed score (-2 to +2): 0
- mean protection from cisplatin (shift in death) (%): 7.4

ARMH4
- two-siRNA summed score (-2 to +2): 0
- mean protection from cisplatin (shift in death) (%): -6.7

EAF2
- two-siRNA summed score (-2 to +2): 0
- mean protection from cisplatin (shift in death) (%): 5.6

LOC441930
- two-siRNA summed score (-2 to +2): 1
- mean protection from cisplatin (shift in death) (%): 14

FGF1
- two-siRNA summed score (-2 to +2): -1
- mean protection from cisplatin (shift in death) (%): -7

KIAA1210
- two-siRNA summed score (-2 to +2): 0
- mean protection from cisplatin (shift in death) (%): 4.3

PEX26
- two-siRNA summed score (-2 to +2): 0
- mean protection from cisplatin (shift in death) (%): 14

C1orf162
- two-siRNA summed score (-2 to +2): 0
- mean protection from cisplatin (shift in death) (%): 1

ALG3
- two-siRNA summed score (-2 to +2): 0
- mean protection from cisplatin (shift in death) (%): 5

NPL
- two-siRNA summed score (-2 to +2): 0
- mean protection from cisplatin (shift in death) (%): 0.3

COG5
- two-siRNA summed score (-2 to +2): 0
- mean protection from cisplatin (shift in death) (%): 4.1

5 consecutive entries from above, for reference:
CYP11B2
- two-siRNA summed score (-2 to +2): -1
- mean protection from cisplatin (shift in death) (%): -23.7

MAML1
- two-siRNA summed score (-2 to +2): 0
- mean protection from cisplatin (shift in death) (%): 2.3

ATP8A1
- two-siRNA summed score (-2 to +2): 0
- mean protection from cisplatin (shift in death) (%): 3.8

RTL5
- two-siRNA summed score (-2 to +2): 0
- mean protection from cisplatin (shift in death) (%): 5.7

ZNF37BP
- two-siRNA summed score (-2 to +2): 0
- mean protection from cisplatin (shift in death) (%): 7.4
